Measurements reported in PubChem BioAssay AID540276 (National Center for Advancing Translational Sciences (NCATS), 2011).
Out of some 300,000 compounds screened, about 5,400 (1.8%) were called active. The inconclusive results got no clear call from the source; some entries with a clear call stand among them for comparison. Calls follow the shape of the full dose curve; tested in HEK293 cells. Potencies beside an inconclusive call are fits to weak or partial responses and may not hold up.

Experiment: qHTS for inhibitors of binding or entry into cells for Marburg Virus
Settings: Marburg virus pseudotyped entry inhibition, cell reporter; series mostly up to 37.8 µM
Potency is read from the fitted curve at half-maximal effect.

Row | SMILES | Potency
1 | COc1cc(OC)cc(-c2nnc(NC(=O)CCS(=O)(=O)c3ccc(F)cc3)o2)c1 | inconclusive: 17.8 µM [inhibitor, partial curve, poor fit]
2 | Nc1nnc(SCc2c(F)cccc2Cl)s1 | inconclusive: 6.31 µM [inhibitor, single point]
3 | Cc1cccc2nc(-c3ccccc3)nc(N[C@@H](CO)c3ccccc3)c12 | inconclusive: 29.1 µM [inhibitor, single point]
4 | O=C(Nc1nnc(-c2ccncc2)o1)c1ccc(Br)s1 | active: 8.91 µM
5 | Cc1ccc(S(=O)(=O)N2CCCN(S(=O)(=O)c3ccc(C(F)(F)F)cc3)CC2)cc1 | inconclusive: 11.6 µM [inhibitor, partial curve]
6 | COC(=O)c1cc(OC)c(OC)cc1NC(=O)CCNC(=O)c1ccco1 | inconclusive: 35.5 µM [activator, single point]
7 | COc1ccc(C(=O)Sc2nncc3ccccc23)cc1 | inactive
8 | CCOC(=O)c1ccc(NC(=O)NCc2ccc(OC)cc2)cc1 | inactive
9 | CCCCOc1ccc(NC(=O)[C@@H]2CCCN2C(=O)C2CCN(S(=O)(=O)c3ccc(C)cc3)CC2)cc1 | inconclusive: 32.6 µM [inhibitor, single point]
10 | Cc1ccc(NC(=S)N2CCN(C3CCCCC3)CC2)cc1 | inconclusive: 1.16 µM [activator, full curve]
11 | Cc1cnc(C(=O)OCC(=O)Nc2sc3c(c2C#N)CCC3)cn1 | inactive
12 | Cc1ccc([N+](=O)[O-])c(OCc2ncc(Cl)n2C)c1 | inconclusive: 7.08 µM [activator, partial curve, poor fit]
13 | Cc1ccc(OCCCCNC2CCCCC2)c(C)c1 | active: 7.3 µM
14 | C/C(=N\NC(=O)Cn1nc(C)c(Br)c1C)c1cccs1 | inconclusive: 1.16 µM [inhibitor, single point]
15 | Cc1cc(-c2ccccc2)nc(N2CCN(c3ccccn3)CC2)n1 | active: 9.2 µM
16 | c1ccc(CCc2nc(-c3ccccc3)oc2NC2CCCCC2)cc1 | inconclusive: 0.0094 µM [activator, full curve, poor fit]
17 | Cc1cc2cc(CN(CC3CCCO3)C(=S)NCc3ccco3)c(=O)[nH]c2cc1C (configuration not stated) | inactive
18 | Cc1cccc(OCCCn2c(CCNC(=O)C3CCCCC3)nc3ccccc32)c1 | inconclusive: 15.8 µM [inhibitor, single point]
19 | CCCn1c(N)c(N(CCOC)C(=O)c2cccc(C(F)(F)F)c2)c(=O)[nH]c1=O | inactive
20 | Cc1ccc(Nc2cc(C)nc(-c3ccccc3)n2)cc1 | inactive
21 | COc1ccccc1NC(=O)C1(c2ccccc2)CCCC1 | inconclusive: 31.6 µM [inhibitor, single point]
22 | Cc1ccc2c(c1)C(c1ccccc1)N(C(=O)c1ccccc1[N+](=O)[O-])CC(=O)N2 (configuration not stated) | inconclusive: 11.2 µM [inhibitor, partial curve]
23 | COc1cc(C(=O)CCN2CCC(c3ccccc3)C2)cc(OC)c1OC (configuration not stated) | inactive

As a working copy, three of the compounds above.
Row | SMILES | Potency
7 | COc1ccc(C(=O)Sc2nncc3ccccc23)cc1 | inactive
8 | CCOC(=O)c1ccc(NC(=O)NCc2ccc(OC)cc2)cc1 | inactive
9 | CCCCOc1ccc(NC(=O)[C@@H]2CCCN2C(=O)C2CCN(S(=O)(=O)c3ccc(C)cc3)CC2)cc1 | inconclusive: 32.6 µM [inhibitor, single point]

Remaining list, next part

Row | SMILES | Potency
24 | COc1ccc(NC(=O)CNC(=O)c2nn(-c3ccc(OC)c(Cl)c3)c(=O)c3ccccc23)c(OC)c1 | inconclusive: 8.2 µM [inhibitor, partial curve, poor fit]
25 | Cc1nnc(NC(=O)C(C)Sc2nnc(CCNC(=O)c3ccccc3F)n2C)s1 (configuration not stated) | inconclusive: 3.16 µM [inhibitor, single point]
26 | C#CC[N+]1(CC#Cc2cccc(C)c2)CCCCC1 | inactive
27 | C=C(C)C(=O)OC[C@H]1CN2[C@@H](CC[C@@H](C)[C@@H]2c2ccc(Br)cc2)C(=O)O1 | inconclusive: 0.0106 µM [inhibitor, full curve, poor fit]
28 | COc1cccc(-c2nc(SCC(=O)Nc3ccc4c(c3)OCCO4)c(-c3ccc(C)cc3)[nH]2)c1 | inconclusive: 10 µM [inhibitor, partial curve, poor fit]
29 | COc1cc(/C=N/NC(=S)NCCN2CCOCC2)cc(OC)c1O | inconclusive: 16.4 µM [inhibitor, single point]
30 | COc1cccc(/C=N/Nc2ccc([N+](=O)[O-])cn2)c1O | inconclusive: 1 µM [inhibitor, full curve, poor fit]
31 | O=c1oc(Nc2ccccc2F)nc2ccccc12 | inconclusive: 0.631 µM [activator, single point]
32 | CCc1ccc(S(=O)(=O)NCc2cn3ccccc3n2)s1 | inconclusive: 17.8 µM [inhibitor, partial curve, poor fit]
33 | O=C(CN1C(=O)/C(=C2\SC(=S)N(CCS(=O)(=O)O)C2=O)c2ccccc21)Nc1cccc(Br)c1 | inconclusive: 10 µM [inhibitor, partial curve, poor fit]
34 | O=C(CCS(=O)(=O)c1ccccc1)Nc1nc(-c2cccs2)cs1 | inconclusive: 29.1 µM [inhibitor, single point]
35 | COCCCNC(=S)NC1CCCCC1 | inconclusive: 1.26 µM [activator, single point]
36 | CCc1ccc(CC2S/C(=C(\C#N)C(C)=O)NC2=O)cc1 (configuration not stated) | inconclusive: 9.2 µM [inhibitor, partial curve, poor fit]
37 | CN(C(=O)Oc1ccc(F)cc1)c1ccccc1 | inconclusive: 0.112 µM [inhibitor, full curve, poor fit]
38 | Cc1ccc(C)c(N2CCN(C(=O)C(CC(C)C)NS(=O)(=O)c3ccc4nc(C)sc4c3)CC2)c1 (configuration not stated) | inconclusive: 11.2 µM [inhibitor, partial curve, poor fit]
39 | COc1ccc(CC(=O)NNS(=O)(=O)c2ccc([N+](=O)[O-])cc2)cc1OC | inactive
40 | COc1ccccc1CN(C)C(=O)CN1CCN(CC(=O)Nc2ccccc2Cl)CC1 | inconclusive: 5.62 µM [activator, single point]
41 | CCC(SC1=N/C(=C/c2ccccc2)C(=O)N1c1ccccc1)C(=O)Nc1cc(C)on1 (configuration not stated) | inconclusive: 31.6 µM [inhibitor, single point]
42 | COc1ccc(N2CCC(CNC(=O)Nc3ccc(OC)cc3OC)C2)cc1 (configuration not stated) | inactive
43 | CCOc1ccc(NC(=O)[C@@H]2CCCN2C(=O)c2cccs2)cc1S(=O)(=O)N1CCCCC1 | inactive
44 | Cn1ccc(C(=O)N/N=C/c2c[nH]c3ccccc23)n1 | inactive
45 | COc1ccccc1N1CCN(C(=S)NC(=O)/C=C/c2ccccc2)CC1 | inconclusive: 1.26 µM [activator, partial curve, poor fit]
46 | CC(=O)c1ccc(N2CCN(C(=S)Nc3cc(C)ccc3C)CC2)cc1 | inactive

A second format for some results above:
Row	SMILES	Potency
28	COc1cccc(-c2nc(SCC(=O)Nc3ccc4c(c3)OCCO4)c(-c3ccc(C)cc3)[nH]2)c1	inconclusive: 10 µM [inhibitor, partial curve, poor fit]
29	COc1cc(/C=N/NC(=S)NCCN2CCOCC2)cc(OC)c1O	inconclusive: 16.4 µM [inhibitor, single point]

The listing continues.

Row | SMILES | Potency
47 | CN(C)CCC1CCN(c2cc(C#N)c(C#N)cc2[N+](=O)[O-])CC1 | inconclusive: 25.1 µM [inhibitor, single point]
48 | C[C@H]1CN(S(=O)(=O)c2cccc3cnccc23)CCN1 | inconclusive: 2.91 µM [inhibitor, partial curve, poor fit]
49 | Cn1cc(/C=N\NC(=O)c2cccs2)c2ccccc21 | inconclusive: 5.62 µM [activator, single point]
50 | Cc1ccc(-c2cc(C(=O)N/N=C/c3ccccc3O)n[nH]2)o1 | inconclusive: 8.91 µM [inhibitor, partial curve, poor fit]
51 | NC(=O)CSc1nc2ccc(NC(=O)COc3ccccc3Cl)cc2s1 | inactive
52 | Cc1ccc(OCC(=O)NCCNC(=O)c2cnccn2)cc1C | inconclusive: 35.5 µM [activator, single point]
53 | C=CCN1C=C2C(=O)C(C)(OC(=O)c3ccco3)C(=O)C(C=C)=C2C=C1C1CC1 (configuration not stated) | inconclusive: 5.31 µM [activator, single point]
54 | COc1ccc(C(Nc2ccccn2)c2oc(CO)cc(=O)c2O)cc1 (configuration not stated) | inactive
55 | CC(C)c1ccc(NC(=O)[C@H]2CSCN2C(=O)[C@@H]2CCC(=O)N2)cc1 | inactive
56 | Cc1cc(NS(=O)(=O)c2ccc(NS(=O)(=O)c3ccc(Br)cc3)cc2)no1 | inconclusive: 0.794 µM [inhibitor, single point]
57 | O=C(N/C=N/OCc1ccc(Cl)cc1Cl)NOCc1ncc(C(F)(F)F)cc1Cl | inconclusive: 35.5 µM [inhibitor, single point]
58 | NS(=O)(=O)c1ccc(N/N=C/c2ccccc2Br)cc1 | inconclusive: 5.01 µM [inhibitor, full curve]
59 | CCOC(=O)c1c(C)oc2c1c(C=NC1CCS(=O)(=O)C1)c(O)c1ccccc12 (configuration not stated) | inconclusive: 35.5 µM [inhibitor, single point]
60 | C=CCSc1nccc(-c2nn(-c3ccc(C)cc3)ccc2=O)n1 | inconclusive: 1.41 µM [inhibitor, full curve, poor fit]
61 | Fc1ccccc1CNCCC(Cc1ccccc1)c1ccc2c(c1)OCO2 (configuration not stated) | inconclusive: 23.1 µM [inhibitor, single point]
62 | O=C(O)CSc1nc(-c2ccccc2)cc(=O)[nH]1 | inconclusive: 32.6 µM [inhibitor, single point]
63 | CCN1C=C(Cc2cccs2)C2=C(C1)C(c1cccs1)C(C#N)=C(N)O2 (configuration not stated) | inconclusive: 35.5 µM [inhibitor, single point]
64 | CCc1nn(CC(=O)NCCCc2ccccc2)c(=O)c2cc3ccccc3n12 | inconclusive: 6.31 µM [inhibitor, single point]
65 | COc1ccc(OC)c(/C=N/Nc2nc(C)cc(=O)[nH]2)c1 | inconclusive: 10 µM [activator, partial curve, poor fit]
66 | C[C@@H](C(=O)Nc1ccccc1N1CCOCC1)N1C(=O)C2CCCCC2C1=O (some centres not stated) | inactive
67 | CCC(C)NCCCCOc1ccc(C)cc1[N+](=O)[O-] (configuration not stated) | inconclusive: 0.146 µM [inhibitor, partial curve, poor fit]
